Source: the supplement of paper PMC10849652
This is one part of the list.

By UniProt entry, the sequences of proteins in these tests, tags left out. Where a name states a change or a piece, a line headed by the entry shows the natural chain unless it says otherwise.
UniProt Q9UMX0, whole entry, looked up: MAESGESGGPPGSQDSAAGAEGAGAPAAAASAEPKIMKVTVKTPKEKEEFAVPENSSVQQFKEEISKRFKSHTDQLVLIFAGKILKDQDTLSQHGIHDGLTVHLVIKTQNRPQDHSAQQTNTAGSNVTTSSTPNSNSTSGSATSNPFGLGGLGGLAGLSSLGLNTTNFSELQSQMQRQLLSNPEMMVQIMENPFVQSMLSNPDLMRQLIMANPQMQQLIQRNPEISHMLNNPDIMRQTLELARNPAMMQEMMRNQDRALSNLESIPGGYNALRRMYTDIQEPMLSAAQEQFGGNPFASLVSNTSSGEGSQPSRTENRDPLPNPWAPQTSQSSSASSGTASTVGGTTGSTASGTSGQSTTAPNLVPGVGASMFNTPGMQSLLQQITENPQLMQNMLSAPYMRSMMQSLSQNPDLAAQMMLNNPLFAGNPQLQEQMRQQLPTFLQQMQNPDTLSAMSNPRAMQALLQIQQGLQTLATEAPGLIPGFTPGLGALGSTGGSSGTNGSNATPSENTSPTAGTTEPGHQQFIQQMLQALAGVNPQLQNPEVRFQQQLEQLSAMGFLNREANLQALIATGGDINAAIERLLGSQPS
UniProt Q9UPT9: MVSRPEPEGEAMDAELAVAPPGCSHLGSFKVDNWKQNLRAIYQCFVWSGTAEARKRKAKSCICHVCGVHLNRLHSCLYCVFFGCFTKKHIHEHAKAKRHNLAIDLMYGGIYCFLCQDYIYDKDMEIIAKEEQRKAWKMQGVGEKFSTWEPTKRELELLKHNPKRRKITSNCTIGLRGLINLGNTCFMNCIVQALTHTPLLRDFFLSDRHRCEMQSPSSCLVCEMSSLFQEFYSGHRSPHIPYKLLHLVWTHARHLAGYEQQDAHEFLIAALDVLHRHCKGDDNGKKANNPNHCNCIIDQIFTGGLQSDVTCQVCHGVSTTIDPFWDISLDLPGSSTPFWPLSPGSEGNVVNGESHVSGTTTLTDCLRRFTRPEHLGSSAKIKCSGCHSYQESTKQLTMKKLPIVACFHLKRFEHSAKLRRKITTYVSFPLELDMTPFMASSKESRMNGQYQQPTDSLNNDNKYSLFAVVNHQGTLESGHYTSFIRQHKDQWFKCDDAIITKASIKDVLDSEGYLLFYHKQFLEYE
UniProt P63027, whole entry, looked up: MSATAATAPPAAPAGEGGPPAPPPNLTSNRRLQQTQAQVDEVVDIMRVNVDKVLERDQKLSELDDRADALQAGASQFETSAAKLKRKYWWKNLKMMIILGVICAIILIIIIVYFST
UniProt Q8NBZ7: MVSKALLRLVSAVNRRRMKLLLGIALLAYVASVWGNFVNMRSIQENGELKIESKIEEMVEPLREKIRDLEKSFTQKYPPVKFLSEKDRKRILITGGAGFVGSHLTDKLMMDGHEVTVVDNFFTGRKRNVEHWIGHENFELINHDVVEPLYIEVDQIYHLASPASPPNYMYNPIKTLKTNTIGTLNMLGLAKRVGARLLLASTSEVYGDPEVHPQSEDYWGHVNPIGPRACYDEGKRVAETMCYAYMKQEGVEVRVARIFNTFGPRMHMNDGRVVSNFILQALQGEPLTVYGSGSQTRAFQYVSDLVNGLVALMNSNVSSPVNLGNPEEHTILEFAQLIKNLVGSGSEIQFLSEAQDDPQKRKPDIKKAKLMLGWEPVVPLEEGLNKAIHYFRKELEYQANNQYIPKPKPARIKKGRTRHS
UniProt Q9NVA1: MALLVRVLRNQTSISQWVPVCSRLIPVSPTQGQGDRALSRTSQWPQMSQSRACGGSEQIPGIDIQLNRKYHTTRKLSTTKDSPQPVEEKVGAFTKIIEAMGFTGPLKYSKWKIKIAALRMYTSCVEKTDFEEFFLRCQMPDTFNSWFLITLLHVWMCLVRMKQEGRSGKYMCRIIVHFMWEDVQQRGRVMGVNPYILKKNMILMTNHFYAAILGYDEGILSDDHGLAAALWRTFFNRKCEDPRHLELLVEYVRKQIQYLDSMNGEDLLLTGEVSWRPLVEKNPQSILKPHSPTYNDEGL
UniProt Q70CQ3: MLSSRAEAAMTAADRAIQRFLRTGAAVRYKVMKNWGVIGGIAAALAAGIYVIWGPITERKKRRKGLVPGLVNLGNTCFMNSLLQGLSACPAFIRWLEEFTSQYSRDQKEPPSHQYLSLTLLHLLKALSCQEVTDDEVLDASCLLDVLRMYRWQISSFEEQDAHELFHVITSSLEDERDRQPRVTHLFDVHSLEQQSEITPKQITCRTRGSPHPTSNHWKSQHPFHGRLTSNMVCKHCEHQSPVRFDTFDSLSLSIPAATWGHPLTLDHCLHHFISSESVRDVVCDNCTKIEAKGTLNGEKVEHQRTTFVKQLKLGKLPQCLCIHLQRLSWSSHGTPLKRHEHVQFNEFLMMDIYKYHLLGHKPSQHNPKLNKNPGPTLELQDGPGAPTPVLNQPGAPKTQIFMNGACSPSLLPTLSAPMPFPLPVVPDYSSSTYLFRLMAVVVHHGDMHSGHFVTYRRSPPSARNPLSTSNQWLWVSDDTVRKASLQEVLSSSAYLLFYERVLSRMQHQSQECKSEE
UniProt Q96BW1: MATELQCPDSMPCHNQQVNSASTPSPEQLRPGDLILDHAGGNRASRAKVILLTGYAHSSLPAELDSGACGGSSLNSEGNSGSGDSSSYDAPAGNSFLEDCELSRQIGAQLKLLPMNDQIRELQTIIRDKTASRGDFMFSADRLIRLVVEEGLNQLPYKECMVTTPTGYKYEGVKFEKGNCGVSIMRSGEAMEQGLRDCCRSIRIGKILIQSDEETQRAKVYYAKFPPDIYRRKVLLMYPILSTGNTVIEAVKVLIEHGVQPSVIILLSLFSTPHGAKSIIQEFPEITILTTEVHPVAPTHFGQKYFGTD
UniProt Q9BZI7: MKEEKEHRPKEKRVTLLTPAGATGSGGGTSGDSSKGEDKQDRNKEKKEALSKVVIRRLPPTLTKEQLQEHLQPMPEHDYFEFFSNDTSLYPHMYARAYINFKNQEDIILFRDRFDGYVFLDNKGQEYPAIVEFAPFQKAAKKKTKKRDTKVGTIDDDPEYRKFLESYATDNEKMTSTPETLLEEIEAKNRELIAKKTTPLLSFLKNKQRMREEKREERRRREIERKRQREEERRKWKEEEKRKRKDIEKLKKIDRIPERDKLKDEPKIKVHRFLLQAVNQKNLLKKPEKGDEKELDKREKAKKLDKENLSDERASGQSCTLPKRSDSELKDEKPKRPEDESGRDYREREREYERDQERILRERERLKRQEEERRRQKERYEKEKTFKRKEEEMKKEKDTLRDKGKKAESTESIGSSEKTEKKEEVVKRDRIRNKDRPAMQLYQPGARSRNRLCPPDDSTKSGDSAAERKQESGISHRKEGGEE
UniProt P51809, whole entry, looked up: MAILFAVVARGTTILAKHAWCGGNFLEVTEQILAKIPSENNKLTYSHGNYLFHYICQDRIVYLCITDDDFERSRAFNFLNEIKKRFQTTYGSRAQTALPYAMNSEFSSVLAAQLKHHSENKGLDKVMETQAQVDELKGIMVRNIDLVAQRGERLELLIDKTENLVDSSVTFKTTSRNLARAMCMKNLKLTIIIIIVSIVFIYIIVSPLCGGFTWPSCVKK
UniProt Q9P2Y5: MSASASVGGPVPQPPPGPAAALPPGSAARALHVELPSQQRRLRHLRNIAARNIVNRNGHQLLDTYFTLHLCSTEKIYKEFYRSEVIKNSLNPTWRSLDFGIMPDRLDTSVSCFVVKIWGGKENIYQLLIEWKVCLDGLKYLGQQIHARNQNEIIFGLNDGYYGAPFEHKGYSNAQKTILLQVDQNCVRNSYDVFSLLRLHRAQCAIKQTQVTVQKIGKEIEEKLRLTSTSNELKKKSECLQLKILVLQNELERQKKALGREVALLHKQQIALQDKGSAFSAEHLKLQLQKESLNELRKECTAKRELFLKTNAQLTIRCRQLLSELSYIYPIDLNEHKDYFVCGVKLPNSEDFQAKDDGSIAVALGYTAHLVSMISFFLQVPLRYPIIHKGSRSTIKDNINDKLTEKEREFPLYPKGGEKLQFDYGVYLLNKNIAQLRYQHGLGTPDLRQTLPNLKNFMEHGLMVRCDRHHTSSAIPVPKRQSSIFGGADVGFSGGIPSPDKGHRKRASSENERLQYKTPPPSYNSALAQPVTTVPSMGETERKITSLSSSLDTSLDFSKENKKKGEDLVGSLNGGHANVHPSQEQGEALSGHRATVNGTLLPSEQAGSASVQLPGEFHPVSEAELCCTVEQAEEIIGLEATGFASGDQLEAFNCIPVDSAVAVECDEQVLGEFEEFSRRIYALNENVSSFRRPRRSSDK
UniProt O14949: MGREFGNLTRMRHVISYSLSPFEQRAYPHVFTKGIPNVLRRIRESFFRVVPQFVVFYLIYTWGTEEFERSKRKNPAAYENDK
UniProt Q9H1C4: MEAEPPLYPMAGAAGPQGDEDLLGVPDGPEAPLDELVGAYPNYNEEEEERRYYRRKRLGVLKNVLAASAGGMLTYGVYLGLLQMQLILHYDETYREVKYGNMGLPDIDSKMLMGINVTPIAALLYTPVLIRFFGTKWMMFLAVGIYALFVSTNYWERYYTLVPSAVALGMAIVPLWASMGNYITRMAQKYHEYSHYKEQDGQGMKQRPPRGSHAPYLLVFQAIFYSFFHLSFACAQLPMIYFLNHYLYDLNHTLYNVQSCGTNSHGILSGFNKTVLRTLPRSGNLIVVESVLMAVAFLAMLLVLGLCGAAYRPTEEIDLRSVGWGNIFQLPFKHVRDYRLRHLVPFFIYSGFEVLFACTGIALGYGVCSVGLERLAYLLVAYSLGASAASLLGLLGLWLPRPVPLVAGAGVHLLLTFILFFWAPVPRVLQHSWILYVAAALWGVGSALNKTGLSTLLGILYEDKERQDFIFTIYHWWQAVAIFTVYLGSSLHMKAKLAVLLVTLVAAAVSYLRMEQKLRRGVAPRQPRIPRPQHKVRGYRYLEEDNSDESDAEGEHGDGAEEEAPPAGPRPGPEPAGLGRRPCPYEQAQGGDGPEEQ
UniProt Q9H347: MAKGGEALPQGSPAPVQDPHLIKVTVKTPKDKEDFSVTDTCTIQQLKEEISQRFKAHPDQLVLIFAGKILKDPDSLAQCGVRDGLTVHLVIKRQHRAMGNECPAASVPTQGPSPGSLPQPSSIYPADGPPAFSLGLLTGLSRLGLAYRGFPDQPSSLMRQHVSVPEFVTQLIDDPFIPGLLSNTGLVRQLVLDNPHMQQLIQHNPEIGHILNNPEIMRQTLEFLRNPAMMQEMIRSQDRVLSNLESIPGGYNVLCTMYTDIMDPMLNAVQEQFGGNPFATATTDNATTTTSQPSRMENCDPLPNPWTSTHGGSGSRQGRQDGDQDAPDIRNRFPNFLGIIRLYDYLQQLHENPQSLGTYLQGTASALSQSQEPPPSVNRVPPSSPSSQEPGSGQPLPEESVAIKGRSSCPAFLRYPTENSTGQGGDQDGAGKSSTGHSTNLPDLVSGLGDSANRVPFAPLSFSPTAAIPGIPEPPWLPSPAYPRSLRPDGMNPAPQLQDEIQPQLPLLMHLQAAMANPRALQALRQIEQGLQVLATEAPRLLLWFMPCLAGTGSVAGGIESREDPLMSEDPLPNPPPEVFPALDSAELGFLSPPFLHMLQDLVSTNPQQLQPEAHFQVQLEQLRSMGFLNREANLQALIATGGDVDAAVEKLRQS
UniProt Q9UBK9, whole entry, looked up: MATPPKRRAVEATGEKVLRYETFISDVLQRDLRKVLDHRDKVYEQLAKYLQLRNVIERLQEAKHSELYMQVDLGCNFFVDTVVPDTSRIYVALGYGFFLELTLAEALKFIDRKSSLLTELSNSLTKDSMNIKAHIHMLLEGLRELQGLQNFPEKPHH

Compound: CC[C@H](C)N1C=C(C2=C(C=C(C=C21)C3=CN=C(C=C3)N4CCNCC4)C(=O)NCC5=C(C=C(NC5=O)C)C)C
Test: log2 fold change, soluble protein after heating vs DMSO (PISA); higher = thermal stabilisation; K562 cells, 10 uM, 30 min; active = over 0.2 and 3.5 SD of the protein, either way, in both replicates (recomputed)
Summary of the method: (§1)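 K562 cells at 2×10^6 cells/mL were treated with 10 μM compound for 30 min. Aliquots were heated for 3 min across 48°C-58°C, pooled, and extracted in PBS with 0.5% NP-40 at 4°C; soluble protein was the supernatant after 21,000xg for 90 min. Soluble protein was quantified by TMTpro 16plex LC-MS/MS with channel sums equalised, and reported as log2 fold change in thermal stability against DMSO controls, with values from duplicates.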

log2 fold change, inactive:
UMPS (UniProt P11172) 0.011
USP9X (UniProt Q93008) 0.038
UBXN7 (UniProt O94888) -0.003
USP6NL isoform 2 (UniProt Q92738) 0.001
UBQLN1 (UniProt Q9UMX0) -0.035
USP22 (UniProt Q9UPT9) 0.144
UGT8 (UniProt Q16880) 0.051
VAMP2 (UniProt P63027) -0.009
UXS1 isoform 2 (UniProt Q8NBZ7) 0.058
VCP (UniProt P55072) -0.026
USP19 isoform 6 (UniProt O94966) 0.064
UTP15 (UniProt Q8TED0) -0.058
UBL4A (UniProt P11441) -0.003
UBE3C (UniProt Q15386) 0.024
VAMP4 (UniProt O75379) -0.081
UQCC1 (UniProt Q9NVA1) 0.004
UCKL1 (UniProt Q9NWZ5) 0.055
UQCRB (UniProt P14927) -0.036
VARS (UniProt P26640) 0.039
UBL5 (UniProt Q9BZL1) 0.1
USP20 (UniProt Q9Y2K6) 0.023
USP30 (UniProt Q70CQ3) 0.061
UPRT (UniProt Q96BW1) -0.003
UPF3B (UniProt Q9BZI7) 0.059
VAMP7 (UniProt P51809) 0.009
UVRAG (UniProt Q9P2Y5) -0.031
UFSP2 (UniProt Q9NUQ7) 0.02
UQCRQ (UniProt O14949) -0.05
USP15 (UniProt Q9Y4E8) 0.066
UBQLN2 (UniProt Q9UHD9) -0.043
UGDH (UniProt O60701) 0.11
UQCRC2 (UniProt P22695) -0.017
UNC93B1 (UniProt Q9H1C4) -0.048
USP7 (UniProt Q93009) 0.101
UBQLN3 (UniProt Q9H347) -0.094
UCHL3 (UniProt P15374) 0.041
VBP1 (UniProt P61758) -0.019
UPF1 (UniProt Q92900) 0.03
UBLCP1 (UniProt Q8WVY7) 0.019
UXT isoform 2 (UniProt Q9UBK9) 0.05

Compound: CC[C@H](C)[C@@H](C(=O)N[C@@H]([C@@H](C)O)C(=O)N[C@@H](CC(C)C)C(=O)[C@]1(CO1)C)NC(=O)[C@H]([C@@H](C)CC)N(C)C(=O)C [epoxomicin]
Test: as above
Summary of the method: as §1

log2 fold change, inactive:
UMPS (UniProt P11172) 0.039
USP9X (UniProt Q93008) 0.01
UBXN7 (UniProt O94888) 0.037
USP6NL isoform 2 (UniProt Q92738) 0.048
UBQLN1 (UniProt Q9UMX0) -0.026
USP22 (UniProt Q9UPT9) 0.089
UGT8 (UniProt Q16880) 0.032
VAMP2 (UniProt P63027) 0.053
UXS1 isoform 2 (UniProt Q8NBZ7) -0.029
VCP (UniProt P55072) -0.028
USP19 isoform 6 (UniProt O94966) 0.018
UTP15 (UniProt Q8TED0) -0.328
UBL4A (UniProt P11441) -0.009
UBE3C (UniProt Q15386) 0.01
VAMP4 (UniProt O75379) -0.08
UQCC1 (UniProt Q9NVA1) 0.042
UCKL1 (UniProt Q9NWZ5) -0.028
UQCRB (UniProt P14927) -0.005
VARS (UniProt P26640) -0.029
UBL5 (UniProt Q9BZL1) 0.102
USP20 (UniProt Q9Y2K6) 0.024
USP30 (UniProt Q70CQ3) 0.399
UPRT (UniProt Q96BW1) 0.058
UPF3B (UniProt Q9BZI7) -0.388
VAMP7 (UniProt P51809) 0.045
UVRAG (UniProt Q9P2Y5) -0.032
UFSP2 (UniProt Q9NUQ7) -0.002
UQCRQ (UniProt O14949) 0.009
USP15 (UniProt Q9Y4E8) 0.03
UBQLN2 (UniProt Q9UHD9) 0.019
UGDH (UniProt O60701) 0.064
UQCRC2 (UniProt P22695) 0.045
UNC93B1 (UniProt Q9H1C4) 0.041
USP7 (UniProt Q93009) 0.02
UBQLN3 (UniProt Q9H347) -0.01
UCHL3 (UniProt P15374) 0.029
VBP1 (UniProt P61758) 0.025
UPF1 (UniProt Q92900) 0.009
UBLCP1 (UniProt Q8WVY7) 0.168
UXT isoform 2 (UniProt Q9UBK9) -0.038
